Results on 1 molecule are retold here after PMC7550611.

The target of the experiment is human ADAR1 deaminase domain, wild type (hADAR1d WT), after TEV cleavage of MBP (human) (UniProt P55265). The experiment can be described thus: native MS; native LC-MS of purified protein at 10 µM; isocratic elution with 200 mM ammonium acetate pH 7.0, column at 23 °C; Q-TOF, positive ion electrospray; both purified.

No constants are given. Whether binding was seen depends on the method and setting. Sequences can lack the tags named with a protein.

B1: human ADAR1 deaminase domain, wild type (hADAR1d WT), after TEV cleavage of MBP (domain or fragment, UniProt P55265 833-1226)
chain: SGGSLPLTGSTFHDQIAMLSHRCFNTLTNSFQPSLLGRKILAAIIMKKDSEDMGVVVSLGTGNRCVKGDSLSLKGETVNDCHAEIISRRGFIRFLYSELMKYNSQTAKDSIFEPAKGGEKLQIKKTVSFHLYISTAPCGDGALFDKSCSDRAMESTESRHYPVFENPKQGKLRTKVENGEGTIPVESSDIVPTWDGIRLGERLRTMSCSDKILRWNVLGLQGALLTHFLQPIYLKSVTLGYLFSQGHLTRAICCRVTRDGSAFEDGLRHPFIVNHPKVGRVSIYDSKRQSGKTKETSVNWCLADGYDLEILDGTRGTVDGPRNELSRVSKKNIFLLFKKLCSFRYRRDLLRLSYGEAKKAARDYETAKNYFKKGLKDMGYGNWISKPQEEKNFYLCPV
Regarding B1, the binding result was “no binding (tested: 10 µM)”.
